Results taken from article PMC7865452.
No constants are given. Whether binding was seen depends on the method and setting. Binding seen in cells or lysates may run through a third protein. These calls come from enrichment with a bait or labelling near it, and not all partners need be listed.

By UniProt entry, the sequences of proteins in these tests, tags left out.
UniProt O75340: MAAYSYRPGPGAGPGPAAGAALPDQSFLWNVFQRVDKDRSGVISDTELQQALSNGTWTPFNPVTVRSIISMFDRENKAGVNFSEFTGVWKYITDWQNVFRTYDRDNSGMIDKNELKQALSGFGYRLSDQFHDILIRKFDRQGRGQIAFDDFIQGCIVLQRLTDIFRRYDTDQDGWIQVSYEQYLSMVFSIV
UniProt O95292: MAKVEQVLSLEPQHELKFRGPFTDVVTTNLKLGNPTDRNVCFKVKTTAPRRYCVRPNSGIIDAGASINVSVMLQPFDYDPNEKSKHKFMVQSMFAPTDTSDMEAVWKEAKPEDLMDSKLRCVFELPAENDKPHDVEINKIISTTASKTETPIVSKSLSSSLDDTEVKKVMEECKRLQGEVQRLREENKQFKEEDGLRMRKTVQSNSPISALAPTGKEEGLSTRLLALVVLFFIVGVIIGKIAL

B1: Peflin, endogenous in MCF-7 Tet-On CDIP1 cells (protein, UniProt Q9UBV8 1-284)
chain: MASYPYRQGCPGAAGQAPGAPPGSYYPGPPNSGGQYGSGLPPGGGYGGPAPGGPYGPPAGGGPYGHPNPGMFPSGTPGGPYGGAAPGGPYGQPPPSSYGAQQPGLYGQGGAPPNVDPEAYSWFQSVDSDHSGYISMKELKQALVNCNWSSFNDETCLMMINMFDKTKSGRIDVYGFSALWKFIQQWKNLFQQYDRDRSGSISYTELQQALSQMGYNLSPQFTQLLVSRYCPRSANPAMQLDRFIQVCTQLQVLTEAFREKDTAVQGNIRLSFEDFVTMTASRML
B2: B-cell-receptor-associated protein 31 (BAP31), endogenous in MCF-7 Tet-On CDIP1 cells (protein, UniProt P51572 1-246)
chain: MSLQWTAVATFLYAEVFVVLLLCIPFISPKRWQKIFKSRLVELLVSYGNTFFVVLIVILVLLVIDAVREIRKYDDVTEKVNLQNNPGAMEHFHMKLFRAQRNLYIAGFSLLLSFLLRRLVTLISQQATLLASNEAFKKQAESASEAAKKYMEENDQLKKGAAVDGGKLDVGNAEVKLEEENRSLKADLQKLKDELASTKQKLEKAENQVLAMRKQSEGLTKEYDRLLEEHAKLQAAVDGPMDKKEE

Each molecule was assayed against T1, CDIP1 induced with doxycycline in MCF-7 Tet-On CDIP1 cells (human) (UniProt Q9H305) (assay: affinity purification with mass spectrometry; MCF-7 Tet-On CDIP1 cells treated with DOX (100 ng/mL, 24 h); HKM buffer, 1% CHAPS; antibody against CDIP1, Protein G magnetic beads; in-gel digestion, LC-MS/MS).
T1 sequence: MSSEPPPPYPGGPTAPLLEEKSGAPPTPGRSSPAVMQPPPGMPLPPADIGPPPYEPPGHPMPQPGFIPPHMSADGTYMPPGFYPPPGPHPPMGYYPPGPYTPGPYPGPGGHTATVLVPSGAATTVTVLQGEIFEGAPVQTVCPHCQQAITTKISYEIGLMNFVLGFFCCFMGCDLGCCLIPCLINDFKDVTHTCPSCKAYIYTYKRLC

binding, binds:
ALG-2, endogenous in MCF-7 Tet-On CDIP1 cells (from UniProt O75340 1-191)
Vesicle-associated membrane protein-associated protein B (VAPB), endogenous in MCF-7 Tet-On CDIP1 cells (from UniProt O95292 1-243)
B1
B2
